Data on one molecule can be found in publication PMC12361992.

Amino acid sequences for entries named in this document (tags omitted).
UniProt O14503: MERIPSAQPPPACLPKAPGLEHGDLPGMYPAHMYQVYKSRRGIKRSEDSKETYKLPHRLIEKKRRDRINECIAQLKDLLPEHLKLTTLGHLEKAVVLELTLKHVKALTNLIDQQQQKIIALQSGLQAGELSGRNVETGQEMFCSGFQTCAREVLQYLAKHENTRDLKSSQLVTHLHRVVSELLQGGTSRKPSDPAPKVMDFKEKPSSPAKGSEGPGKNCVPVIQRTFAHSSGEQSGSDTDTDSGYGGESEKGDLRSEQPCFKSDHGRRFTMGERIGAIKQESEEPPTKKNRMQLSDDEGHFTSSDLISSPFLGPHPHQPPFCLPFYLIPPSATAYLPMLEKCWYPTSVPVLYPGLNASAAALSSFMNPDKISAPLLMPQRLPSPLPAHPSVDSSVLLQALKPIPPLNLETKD

For this experiment, the target named is basic helix-loop-helix family member E40 (BHLHE40) (human (endogenous in the paper's human cell lines; line not stated for this experiment)) (UniProt O14503). In words: co-IP; endogenous proteins; cells lysed in RIPA buffer with protease and phosphatase inhibitors; supernatant incubated with anti-BHLHE40 antibody at 4 °C overnight, protein A/G magnetic beads, washed with RIPA buffer; western blot with anti-CCDC86 antibody. Background: A western blot detects proteins with antibodies after separation by electrophoresis.

Results are given in words; binding and its absence hold for the method and conditions named. Binding seen in cells or lysates may run through a third protein. Some results given as binding are weak or reduced against the parent protein; the word gives no strength.

B1: coiled-coil domain containing 86 (CCDC86) (protein, UniProt Q9H6F5 1-360)
chain: MDTPLRRSRRLGGLRPESPESLTSVSRTRRALVEFESNPEETREPGSPPSVQRAGLGSPERPPKTSPGSPRLQQGAGLESPQGQPEPGAASPQRQQDLHLESPQRQPEYSPESPRCQPKPSEEAPKCSQDQGVLASELAQNKEELTPGAPQHQLPPVPGSPEPYPGQQAPGPEPSQPLLELTPRAPGSPRGQHEPSKPPPAGETVTGGFGAKKRKGSSSQAPASKKLNKEELPVIPKGKPKSGRVWKDRSKKRFSQMLQDKPLRTSWQRKMKERQERKLAKDFARHLEEEKERRRQEKKQRRAENLKRRLENERKAEVVQVIRNPAKLKRAKKKQLRSIEKRDTLALLQKQPPQQPAAKI
As for B1, the binding result is “binds”.
